Article PMC10901363 (Science Advances, 2024)
No constants are given. Whether binding was seen depends on the method and setting. For some of these results: Sequences can lack the tags named with a protein.

Columns and labels:
[1] = biological target: T1, GST-FERM E47A E57A mutant (UniProt Q16825); assay: pull-down; GST-FERM (60 μM) with an equal molar amount of PTP, glutathione-agarose beads, 20 mM tris-HCl pH 8.0, 75 mM NaCl, 0.3 mM TCEP, 2% glycerol, 4°C; both purified
T1 sequence: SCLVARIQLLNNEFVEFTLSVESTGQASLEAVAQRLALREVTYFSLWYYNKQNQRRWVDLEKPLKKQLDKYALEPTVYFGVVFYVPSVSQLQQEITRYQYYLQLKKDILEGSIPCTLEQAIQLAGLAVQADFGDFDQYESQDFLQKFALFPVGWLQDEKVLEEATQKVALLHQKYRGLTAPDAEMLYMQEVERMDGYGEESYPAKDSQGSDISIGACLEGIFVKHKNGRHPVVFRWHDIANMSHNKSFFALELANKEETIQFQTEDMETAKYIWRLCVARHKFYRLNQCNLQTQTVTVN

[2] = biological target: T2, GST-tagged PTPN21 FERM domain (residues 21 to 319) (UniProt Q16825); assay: as above
T2 sequence: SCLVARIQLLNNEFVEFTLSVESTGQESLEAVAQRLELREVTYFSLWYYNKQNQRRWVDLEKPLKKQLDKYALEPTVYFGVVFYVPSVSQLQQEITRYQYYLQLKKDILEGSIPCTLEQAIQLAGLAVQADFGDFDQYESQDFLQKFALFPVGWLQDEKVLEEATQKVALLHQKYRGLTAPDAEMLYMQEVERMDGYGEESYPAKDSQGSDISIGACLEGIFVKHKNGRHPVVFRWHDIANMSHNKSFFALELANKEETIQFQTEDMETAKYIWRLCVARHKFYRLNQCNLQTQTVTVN

PTPN21 PTP-EGFP = biological target: T3, PTPN21 PTP-EGFP (UniProt Q16825 872-1174); assay: MST; PTP-EGFP fixed at 80 nM, FERM titrated from 300 μM to 0.09 nM; 20 mM Hepes pH 7.0, 150 mM NaCl, 0.3 mM TCEP, 1.5 mM BSA; mutants measured similarly; both purified
T3 construct: also called WT PTP-EGFP; source: E. coli Rosetta (DE3), purified (as the untagged domain); not shown: His-sumo, N-terminal, cleaved; EGFP, C-terminal, kept
T3 sequence (looked up): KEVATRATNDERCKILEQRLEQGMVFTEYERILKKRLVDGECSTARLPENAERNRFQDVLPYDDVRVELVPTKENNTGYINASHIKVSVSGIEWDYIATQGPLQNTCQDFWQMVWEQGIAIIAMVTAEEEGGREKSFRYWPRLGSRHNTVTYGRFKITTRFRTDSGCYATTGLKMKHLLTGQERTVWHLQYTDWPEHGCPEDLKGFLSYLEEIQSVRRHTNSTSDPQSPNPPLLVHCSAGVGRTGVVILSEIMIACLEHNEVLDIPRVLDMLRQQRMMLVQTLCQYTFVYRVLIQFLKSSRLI

[3] = biological target: T4, PTPN21 PTP R1089A R1031A mutant (MST) (UniProt Q16825); assay: as above
T4 sequence: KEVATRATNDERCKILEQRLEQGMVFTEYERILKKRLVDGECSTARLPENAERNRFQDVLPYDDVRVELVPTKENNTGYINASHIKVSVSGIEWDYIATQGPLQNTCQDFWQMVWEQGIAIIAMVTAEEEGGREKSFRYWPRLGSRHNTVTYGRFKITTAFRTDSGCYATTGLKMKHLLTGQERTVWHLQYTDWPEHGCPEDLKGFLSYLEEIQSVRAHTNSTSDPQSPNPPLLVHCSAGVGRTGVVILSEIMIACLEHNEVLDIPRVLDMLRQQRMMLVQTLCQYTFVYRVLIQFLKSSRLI

B1: PTPN21 PTP domain (residues 872 to 1174) (domain or fragment)
chain: KEVATRATNDERCKILEQRLEQGMVFTEYERILKKRLVDGECSTARLPENAERNRFQDVLPYDDVRVELVPTKENNTGYINASHIKVSVSGIEWDYIATQGPLQNTCQDFWQMVWEQGIAIIAMVTAEEEGGREKSFRYWPRLGSRHNTVTYGRFKITTRFRTDSGCYATTGLKMKHLLTGQERTVWHLQYTDWPEHGCPEDLKGFLSYLEEIQSVRRHTNSTSDPQSPNPPLLVHCSAGVGRTGVVILSEIMIACLEHNEVLDIPRVLDMLRQQRMMLVQTLCQYTFVYRVLIQFLKSSRLI
B1 was tested, and the binding [1] was “no binding”.

B2: PTPN21 PTP R1089A R1031A mutant (GST pulldown) (domain or fragment, UniProt Q16825 872-1174)
chain: KEVATRATNDERCKILEQRLEQGMVFTEYERILKKRLVDGECSTARLPENAERNRFQDVLPYDDVRVELVPTKENNTGYINASHIKVSVSGIEWDYIATQGPLQNTCQDFWQMVWEQGIAIIAMVTAEEEGGREKSFRYWPRLGSRHNTVTYGRFKITTAFRTDSGCYATTGLKMKHLLTGQERTVWHLQYTDWPEHGCPEDLKGFLSYLEEIQSVRAHTNSTSDPQSPNPPLLVHCSAGVGRTGVVILSEIMIACLEHNEVLDIPRVLDMLRQQRMMLVQTLCQYTFVYRVLIQFLKSSRLI
B2 was tested, and the binding [2] was “no binding”.

B3: PTPN21 FERM E47A E57A mutant (MST) (domain or fragment, UniProt Q16825 21-319)
chain: SCLVARIQLLNNEFVEFTLSVESTGQASLEAVAQRLALREVTYFSLWYYNKQNQRRWVDLEKPLKKQLDKYALEPTVYFGVVFYVPSVSQLQQEITRYQYYLQLKKDILEGSIPCTLEQAIQLAGLAVQADFGDFDQYESQDFLQKFALFPVGWLQDEKVLEEATQKVALLHQKYRGLTAPDAEMLYMQEVERMDGYGEESYPAKDSQGSDISIGACLEGIFVKHKNGRHPVVFRWHDIANMSHNKSFFALELANKEETIQFQTEDMETAKYIWRLCVARHKFYRLNQCNLQTQTVTVN
In the case of B3, the binding (PTPN21 PTP-EGFP) is reported as “no binding”.

B4: PTPN21 FERM domain (residues 21 to 319) (domain or fragment, UniProt Q16825 21-319, looked up)
chain: SCLVARIQLLNNEFVEFTLSVESTGQESLEAVAQRLELREVTYFSLWYYNKQNQRRWVDLEKPLKKQLDKYALEPTVYFGVVFYVPSVSQLQQEITRYQYYLQLKKDILEGSIPCTLEQAIQLAGLAVQADFGDFDQYESQDFLQKFALFPVGWLQDEKVLEEATQKVALLHQKYRGLTAPDAEMLYMQEVERMDGYGEESYPAKDSQGSDISIGACLEGIFVKHKNGRHPVVFRWHDIANMSHNKSFFALELANKEETIQFQTEDMETAKYIWRLCVARHKFYRLNQCNLQTQTVTVN
notes: also called FERM^PTPN21; source: E. coli Rosetta (DE3), purified (Ni-NTA, source Q, Superdex 200); not shown: His-sumo, N-terminal, cleaved
With B4 the binding [3] was “no binding”.
